Test results published in the supplement of paper PMC10032668.
This is one part of the list. Only hits are listed; about a third recur on repeated control peptides.

Sequences of proteins named here, by UniProt entry; tags and fusion partners are left off.
EIF2B1, Q14232, UniProt Q14232, whole entry: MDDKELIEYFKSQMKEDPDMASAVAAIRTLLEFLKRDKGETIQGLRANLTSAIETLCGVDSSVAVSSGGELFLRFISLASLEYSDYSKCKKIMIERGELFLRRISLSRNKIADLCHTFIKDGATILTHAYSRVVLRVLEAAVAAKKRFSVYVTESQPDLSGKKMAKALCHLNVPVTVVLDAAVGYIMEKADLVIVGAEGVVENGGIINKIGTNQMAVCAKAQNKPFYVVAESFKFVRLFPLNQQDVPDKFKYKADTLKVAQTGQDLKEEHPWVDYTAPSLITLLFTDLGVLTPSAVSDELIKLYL
KPNA1, P52294, UniProt P52294, whole entry: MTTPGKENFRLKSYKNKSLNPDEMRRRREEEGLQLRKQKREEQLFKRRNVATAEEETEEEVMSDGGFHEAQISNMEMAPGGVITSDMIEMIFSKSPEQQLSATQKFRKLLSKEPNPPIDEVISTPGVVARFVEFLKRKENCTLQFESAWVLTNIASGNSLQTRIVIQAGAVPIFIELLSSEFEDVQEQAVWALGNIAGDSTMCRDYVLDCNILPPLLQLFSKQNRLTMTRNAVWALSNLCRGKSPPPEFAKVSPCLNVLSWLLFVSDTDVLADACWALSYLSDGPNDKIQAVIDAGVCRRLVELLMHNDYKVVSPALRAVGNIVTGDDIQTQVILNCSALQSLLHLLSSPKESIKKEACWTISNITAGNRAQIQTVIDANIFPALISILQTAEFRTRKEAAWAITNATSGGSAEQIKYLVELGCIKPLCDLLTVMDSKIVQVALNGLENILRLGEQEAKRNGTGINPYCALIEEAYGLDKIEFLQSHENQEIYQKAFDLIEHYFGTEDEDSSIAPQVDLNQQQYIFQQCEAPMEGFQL
TPM4, P67936, UniProt P67936, whole entry: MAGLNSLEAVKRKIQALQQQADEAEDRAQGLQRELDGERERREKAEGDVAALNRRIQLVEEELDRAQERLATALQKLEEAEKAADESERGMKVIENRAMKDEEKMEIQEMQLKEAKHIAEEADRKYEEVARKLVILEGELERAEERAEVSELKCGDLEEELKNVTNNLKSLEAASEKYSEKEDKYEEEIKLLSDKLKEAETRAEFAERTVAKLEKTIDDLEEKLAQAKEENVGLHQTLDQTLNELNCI
TUBB6, Q9BUF5, UniProt Q9BUF5, whole entry: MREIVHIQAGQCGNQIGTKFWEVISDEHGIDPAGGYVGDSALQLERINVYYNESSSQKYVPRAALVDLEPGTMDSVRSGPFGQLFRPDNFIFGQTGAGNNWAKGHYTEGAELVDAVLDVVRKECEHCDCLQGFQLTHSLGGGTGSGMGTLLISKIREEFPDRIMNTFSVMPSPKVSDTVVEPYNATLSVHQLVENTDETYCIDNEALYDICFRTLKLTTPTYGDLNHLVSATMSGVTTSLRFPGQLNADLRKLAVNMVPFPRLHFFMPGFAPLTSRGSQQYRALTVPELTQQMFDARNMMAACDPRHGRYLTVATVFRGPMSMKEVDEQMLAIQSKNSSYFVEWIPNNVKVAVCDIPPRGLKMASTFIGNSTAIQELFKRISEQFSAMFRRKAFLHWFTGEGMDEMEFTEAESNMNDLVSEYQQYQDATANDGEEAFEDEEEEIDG
UNG, P13051, UniProt P13051, whole entry: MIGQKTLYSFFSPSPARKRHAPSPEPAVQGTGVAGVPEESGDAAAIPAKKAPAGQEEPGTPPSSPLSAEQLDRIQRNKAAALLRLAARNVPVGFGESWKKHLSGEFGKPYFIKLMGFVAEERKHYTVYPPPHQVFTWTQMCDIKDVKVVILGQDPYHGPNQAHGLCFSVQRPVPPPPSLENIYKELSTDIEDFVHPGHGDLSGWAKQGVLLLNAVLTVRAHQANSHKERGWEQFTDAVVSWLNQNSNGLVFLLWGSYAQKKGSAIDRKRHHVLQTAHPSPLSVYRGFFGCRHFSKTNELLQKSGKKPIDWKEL
C3, P01024, UniProt P01024, whole entry: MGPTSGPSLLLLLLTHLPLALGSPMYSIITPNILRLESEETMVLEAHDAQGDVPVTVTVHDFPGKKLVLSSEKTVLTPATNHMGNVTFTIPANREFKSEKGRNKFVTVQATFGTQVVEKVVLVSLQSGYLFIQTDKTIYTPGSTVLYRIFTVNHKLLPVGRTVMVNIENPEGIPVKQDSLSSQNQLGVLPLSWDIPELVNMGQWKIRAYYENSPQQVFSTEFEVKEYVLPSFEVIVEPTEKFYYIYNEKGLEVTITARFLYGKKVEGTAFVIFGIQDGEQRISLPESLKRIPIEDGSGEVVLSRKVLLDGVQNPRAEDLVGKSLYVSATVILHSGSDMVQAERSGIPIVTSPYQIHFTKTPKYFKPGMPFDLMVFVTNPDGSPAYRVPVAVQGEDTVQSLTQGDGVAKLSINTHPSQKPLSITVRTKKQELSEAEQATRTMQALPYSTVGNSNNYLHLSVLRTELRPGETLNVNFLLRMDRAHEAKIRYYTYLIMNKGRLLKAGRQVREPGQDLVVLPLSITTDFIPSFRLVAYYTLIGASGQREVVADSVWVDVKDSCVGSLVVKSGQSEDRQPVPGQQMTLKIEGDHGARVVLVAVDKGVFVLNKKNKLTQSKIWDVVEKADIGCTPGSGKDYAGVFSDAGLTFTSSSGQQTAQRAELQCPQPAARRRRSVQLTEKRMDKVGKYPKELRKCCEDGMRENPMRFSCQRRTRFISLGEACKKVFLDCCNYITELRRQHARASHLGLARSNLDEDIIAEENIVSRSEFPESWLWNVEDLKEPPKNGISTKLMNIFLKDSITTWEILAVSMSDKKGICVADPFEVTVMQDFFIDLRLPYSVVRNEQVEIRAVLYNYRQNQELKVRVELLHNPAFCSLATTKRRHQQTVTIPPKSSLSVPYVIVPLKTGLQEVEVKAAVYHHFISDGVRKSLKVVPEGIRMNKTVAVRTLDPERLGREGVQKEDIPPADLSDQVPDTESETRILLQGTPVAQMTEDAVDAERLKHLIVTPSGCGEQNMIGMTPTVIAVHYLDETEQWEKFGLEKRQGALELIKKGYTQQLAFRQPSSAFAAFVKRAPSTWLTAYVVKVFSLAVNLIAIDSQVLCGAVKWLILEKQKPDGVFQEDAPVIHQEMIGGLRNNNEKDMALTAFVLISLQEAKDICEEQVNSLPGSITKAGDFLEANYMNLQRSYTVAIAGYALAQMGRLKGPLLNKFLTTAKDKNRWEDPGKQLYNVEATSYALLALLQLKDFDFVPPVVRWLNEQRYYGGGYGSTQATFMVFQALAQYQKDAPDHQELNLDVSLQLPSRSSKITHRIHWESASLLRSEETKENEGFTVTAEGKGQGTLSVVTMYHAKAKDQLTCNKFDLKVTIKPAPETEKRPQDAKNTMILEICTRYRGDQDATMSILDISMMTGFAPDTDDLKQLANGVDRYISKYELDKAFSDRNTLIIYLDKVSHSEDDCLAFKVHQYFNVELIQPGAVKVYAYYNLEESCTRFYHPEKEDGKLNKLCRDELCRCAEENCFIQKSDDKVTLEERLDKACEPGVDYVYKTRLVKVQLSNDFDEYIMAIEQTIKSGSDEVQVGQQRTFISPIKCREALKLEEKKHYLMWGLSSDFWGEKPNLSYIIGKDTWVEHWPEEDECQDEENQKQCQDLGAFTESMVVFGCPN
FABP5, Q01469, UniProt Q01469, whole entry: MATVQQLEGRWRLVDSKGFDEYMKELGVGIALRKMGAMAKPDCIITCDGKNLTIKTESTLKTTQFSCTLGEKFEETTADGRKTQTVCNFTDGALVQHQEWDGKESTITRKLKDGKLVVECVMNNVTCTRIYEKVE

Key:
Test in all cases: PRISMA enrichment of interactor (LFQ) in peptide spot vs all other peptide spots (log2 fold change); higher = stronger / more specific binding of the interactor to the peptide
APRT, P07741 = biological target: APRT, P07741
Protocol: (§1)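 PRISMA: 15-aa overlapping tiles (offset 8 aa) of 60 microproteins, plus SOS1/GLUT1 control peptides, were spot-synthesized on cellulose membranes in triplicate. Membranes were incubated with benzonase-treated HEK293T lysate, and bound proteins were identified by LC-MS/MS with LFQ. Enrichment is the log2 fold change of each protein in one spot versus all other spots. Only interactors passing the significance cutoff are listed.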

ARF1, P84077 = biological target: ARF1, P84077
Protocol: as §1

CDC42EP1, Q00587 = biological target: CDC42EP1, Q00587
Protocol: as §1

CDCA7L, Q96GN5 = biological target: CDCA7L, Q96GN5
Protocol: as §1

CMAS, Q8NFW8 = biological target: CMAS, Q8NFW8
Protocol: as §1

[1] = substrate: CNP, P09543
Protocol: as §1

COPS4, Q9BT78 = biological target: COPS4, Q9BT78
Protocol: as §1

DDX18, Q9NVP1 = biological target: DDX18, Q9NVP1
Protocol: as §1

EHD1, Q9H4M9 = biological target: EHD1, Q9H4M9
Protocol: as §1

EHD4, Q9H223 = biological target: EHD4, Q9H223
Protocol: as §1

EIF2B1, Q14232 = biological target: EIF2B1, Q14232
Protocol: as §1

ELOA, Q14241 = biological target: ELOA, Q14241
Protocol: as §1

FUBP3, Q96I24 = biological target: FUBP3, Q96I24
Protocol: as §1

GTF3C3, Q9Y5Q9 = biological target: GTF3C3, Q9Y5Q9
Protocol: as §1

HNRNPR, O43390 = biological target: HNRNPR, O43390
Protocol: as §1

KPNA1, P52294 = biological target: KPNA1, P52294
Protocol: as §1

MRPL22, Q9NWU5 = biological target: MRPL22, Q9NWU5
Protocol: as §1

PPP1R2, P41236 = biological target: PPP1R2, P41236
Protocol: as §1

PSMA4, P25789 = biological target: PSMA4, P25789
Protocol: as §1

RNH1, P13489 = biological target: RNH1, P13489
Protocol: as §1

RPN2, P04844 = biological target: RPN2, P04844
Protocol: as §1

SHROOM3, Q8TF72 = biological target: SHROOM3, Q8TF72
Protocol: as §1

TOMM6, Q96B49 = biological target: TOMM6, Q96B49
Protocol: as §1

TPM4, P67936 = biological target: TPM4, P67936
Protocol: as §1

TRA2A, Q13595 = biological target: TRA2A, Q13595
Protocol: as §1

TUBB6, Q9BUF5 = biological target: TUBB6, Q9BUF5
Protocol: as §1

UBE2M, P61081 = biological target: UBE2M, P61081
Protocol: as §1

UNG, P13051 = biological target: UNG, P13051
Protocol: as §1

ARF6, P62330 = biological target: ARF6, P62330
Protocol: as §1

C3, P01024 = biological target: C3, P01024
Protocol: as §1

CERS2, Q96G23 = biological target: CERS2, Q96G23
Protocol: as §1

CNIH4, Q9P003 = biological target: CNIH4, Q9P003
Protocol: as §1

DCAF1, Q9Y4B6 = biological target: DCAF1, Q9Y4B6
Protocol: as §1

GTF2E1, P29083 = biological target: GTF2E1, P29083
Protocol: as §1

ITCH, Q96J02 = biological target: ITCH, Q96J02
Protocol: as §1

MT-ATP6, P00846 = biological target: MT-ATP6, P00846
Protocol: as §1

OSTC, Q9NRP0 = biological target: OSTC, Q9NRP0
Protocol: as §1

PDCD4, Q53EL6 = biological target: PDCD4, Q53EL6
Protocol: as §1

PSAT1, Q9Y617 = biological target: PSAT1, Q9Y617
Protocol: as §1

RER1, O15258 = biological target: RER1, O15258
Protocol: as §1

SSR3, Q9UNL2 = biological target: SSR3, Q9UNL2
Protocol: as §1

SURF4, O15260 = biological target: SURF4, O15260
Protocol: as §1

XPO4, Q9C0E2 = biological target: XPO4, Q9C0E2
Protocol: as §1

ARPC4, P59998 = biological target: ARPC4, P59998
Protocol: as §1

DCXR, Q7Z4W1 = biological target: DCXR, Q7Z4W1
Protocol: as §1

DERPC, P0CG12 = biological target: DERPC, P0CG12
Protocol: as §1

FABP5, Q01469 = biological target: FABP5, Q01469
Protocol: as §1

PRPF8, Q6P2Q9 = biological target: PRPF8, Q6P2Q9
Protocol: as §1

RRP1B, Q14684 = biological target: RRP1B, Q14684
Protocol: as §1

SART3, Q15020 = biological target: SART3, Q15020
Protocol: as §1

SHMT1, P34896 = biological target: SHMT1, P34896
Protocol: as §1

SNX9, Q9Y5X1 = biological target: SNX9, Q9Y5X1
Protocol: as §1

WDR44, Q5JSH3 = biological target: WDR44, Q5JSH3
Protocol: as §1

WDR5, P61964 = biological target: WDR5, P61964
Protocol: as §1

## DMLPNGAVGSLTQLG [LINC01560]
APRT, P07741
  PRISMA enrichment of interactor (log2): 4.54
ARF1, P84077
  PRISMA enrichment of interactor (log2): 5.88
CDC42EP1, Q00587
  PRISMA enrichment of interactor (log2): 3.88
CDCA7L, Q96GN5
  PRISMA enrichment of interactor (log2): 5.71
CMAS, Q8NFW8
  PRISMA enrichment of interactor (log2): 6.37
[1]
  PRISMA enrichment of interactor (log2): 5.8
COPS4, Q9BT78
  PRISMA enrichment of interactor (log2): 5.65
DDX18, Q9NVP1
  PRISMA enrichment of interactor (log2): 5.01
EHD1, Q9H4M9
  PRISMA enrichment of interactor (log2): 4.88
EHD4, Q9H223
  PRISMA enrichment of interactor (log2): 5.53
EIF2B1, Q14232
  PRISMA enrichment of interactor (log2): 4.46
ELOA, Q14241
  PRISMA enrichment of interactor (log2): 5.21
FUBP3, Q96I24
  PRISMA enrichment of interactor (log2): 5.96
GTF3C3, Q9Y5Q9
  PRISMA enrichment of interactor (log2): 8.82
HNRNPR, O43390
  PRISMA enrichment of interactor (log2): 8.22
KPNA1, P52294
  PRISMA enrichment of interactor (log2): 6.38
MRPL22, Q9NWU5
  PRISMA enrichment of interactor (log2): 6.38
PPP1R2, P41236
  PRISMA enrichment of interactor (log2): 6.48
PSMA4, P25789
  PRISMA enrichment of interactor (log2): 6.36
RNH1, P13489
  PRISMA enrichment of interactor (log2): 11.6
RPN2, P04844
  PRISMA enrichment of interactor (log2): 5.25
SHROOM3, Q8TF72
  PRISMA enrichment of interactor (log2): 10.7
TOMM6, Q96B49
  PRISMA enrichment of interactor (log2): 5.7
TPM4, P67936
  PRISMA enrichment of interactor (log2): 5.16
TRA2A, Q13595
  PRISMA enrichment of interactor (log2): 4.6
TUBB6, Q9BUF5
  PRISMA enrichment of interactor (log2): 6.9
UBE2M, P61081
  PRISMA enrichment of interactor (log2): 6.37
UNG, P13051
  PRISMA enrichment of interactor (log2): 7.26

## LWFLSPASRTAGPAA [TBX5-AS1]
ARF6, P62330
  PRISMA enrichment of interactor (log2): 3.78
C3, P01024
  PRISMA enrichment of interactor (log2): 6.97
CERS2, Q96G23
  PRISMA enrichment of interactor (log2): 3.97
CNIH4, Q9P003
  PRISMA enrichment of interactor (log2): 3.8
DCAF1, Q9Y4B6
  PRISMA enrichment of interactor (log2): 12.4
GTF2E1, P29083
  PRISMA enrichment of interactor (log2): 3.92
ITCH, Q96J02
  PRISMA enrichment of interactor (log2): 4.19
MT-ATP6, P00846
  PRISMA enrichment of interactor (log2): 4.57
OSTC, Q9NRP0
  PRISMA enrichment of interactor (log2): 4.56
PDCD4, Q53EL6
  PRISMA enrichment of interactor (log2): 5.67
PSAT1, Q9Y617
  PRISMA enrichment of interactor (log2): 4.79
RER1, O15258
  PRISMA enrichment of interactor (log2): 5.4
SHROOM3, Q8TF72
  PRISMA enrichment of interactor (log2): 9.86
SSR3, Q9UNL2
  PRISMA enrichment of interactor (log2): 4.61
SURF4, O15260
  PRISMA enrichment of interactor (log2): 4.55
XPO4, Q9C0E2
  PRISMA enrichment of interactor (log2): 4.46

## MMAVTSQLNGKLKSP [CTC-471J1.11]
ARF6, P62330
  PRISMA enrichment of interactor (log2): 3.96
ARPC4, P59998
  PRISMA enrichment of interactor (log2): 3.9
DCXR, Q7Z4W1
  PRISMA enrichment of interactor (log2): 7.87
DERPC, P0CG12
  PRISMA enrichment of interactor (log2): 4.51
FABP5, Q01469
  PRISMA enrichment of interactor (log2): 4.59
PRPF8, Q6P2Q9
  PRISMA enrichment of interactor (log2): 4.56
RRP1B, Q14684
  PRISMA enrichment of interactor (log2): 4.82
SART3, Q15020
  PRISMA enrichment of interactor (log2): 4.51
SHMT1, P34896
  PRISMA enrichment of interactor (log2): 6.68
SNX9, Q9Y5X1
  PRISMA enrichment of interactor (log2): 5.82
WDR44, Q5JSH3
  PRISMA enrichment of interactor (log2): 8.12
WDR5, P61964
  PRISMA enrichment of interactor (log2): 5.84
